Measurements published in the supplement of paper PMC8728848.
This is one part of the list.

Legend:
Assay in all cases: glycan array binding signal (z-score within array); higher = stronger binding
Conditions in all cases: glycan notation: IUPAC condensed, linker removed
[1] = target: Neu5Ac(a2-3)[Neu5Ac(a2-6)]GalNAc
Procedure, shortened: (§1)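 Glycan array data came from 3228 arrays in the Consortium for Functional Glycomics database, and only arrays with an available protein sequence were kept. Glycan names were put into IUPAC-condensed notation, and columns mapping to the same glycan were averaged. The binding signal is a within-array Z-score, averaged across arrays of one protein sequence run at different concentrations or buffers and across linkers. A negative Z-score can be read as non-binding.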

Neu5Ac(a2-6)Gal = target: Neu5Ac(a2-6)Gal
Procedure, shortened: as §1

[2] = target: Neu5Ac(a2-6)Gal(b1-3)GlcNAc(b1-3)[Gal(b1-4)GlcNAc(b1-6)]Gal(b1-4)Glc
Procedure, shortened: as §1

Neu5Ac(a2-6)Gal(b1-4)Glc = target: Neu5Ac(a2-6)Gal(b1-4)Glc
Procedure, shortened: as §1

[3] = target: Neu5Ac(a2-6)Gal(b1-4)GlcNAc
Procedure, shortened: as §1

[4] = target: Neu5Ac(a2-6)Gal(b1-4)GlcNAc(b1-2)Man
Procedure, shortened: as §1

[5] = target: Neu5Ac(a2-6)Gal(b1-4)GlcNAc(b1-2)Man(a1-3)Man(b1-4)GlcNAc(b1-4)GlcNAc
Procedure, shortened: as §1

[6] = target: Neu5Ac(a2-6)Gal(b1-4)GlcNAc(b1-2)Man(a1-3)[Gal(b1-4)GlcNAc(b1-2)Man(a1-6)]Man(b1-4)GlcNAc(b1-4)GlcNAc
Procedure, shortened: as §1

[7] = target: Neu5Ac(a2-6)Gal(b1-4)GlcNAc(b1-2)Man(a1-3)[GlcNAc(b1-2)Man(a1-6)]Man(b1-4)GlcNAc(b1-4)GlcNAc
Procedure, shortened: as §1

[8] = target: Neu5Ac(a2-6)Gal(b1-4)GlcNAc(b1-2)Man(a1-3)[GlcNAc(b1-2)Man(b1-4)GlcNAc(b1-2)Man(a1-6)]Man(b1-4)GlcNAc(b1-4)GlcNAc
Procedure, shortened: as §1

[9] = target: Neu5Ac(a2-6)Gal(b1-4)GlcNAc(b1-2)Man(a1-3)[GlcNAc(b1-4)][Neu5Ac(a2-6)Gal(b1-4)GlcNAc(b1-2)Man(a1-6)]Man(b1-4)GlcNAc(b1-4)GlcNAc
Procedure, shortened: as §1

[10] = target: Neu5Ac(a2-6)Gal(b1-4)GlcNAc(b1-2)Man(a1-3)[Man(a1-6)]Man(b1-4)GlcNAc(b1-4)GlcNAc
Procedure, shortened: as §1

[11] = target: Neu5Ac(a2-6)Gal(b1-4)GlcNAc(b1-2)Man(a1-3)[Neu5Ac(a2-3)Gal(b1-4)GlcNAc(b1-2)Man(a1-6)]Man(b1-4)GlcNAc(b1-4)GlcNAc
Procedure, shortened: as §1

[12] = target: Neu5Ac(a2-6)Gal(b1-4)GlcNAc(b1-2)Man(a1-3)[Neu5Ac(a2-6)Gal(b1-4)GlcNAc(b1-2)Man(a1-6)]Man(b1-4)GlcNAc(b1-4)GlcNAc
Procedure, shortened: as §1

[13] = target: Neu5Ac(a2-6)Gal(b1-4)GlcNAc(b1-2)Man(a1-3)[Neu5Ac(a2-6)Gal(b1-4)GlcNAc(b1-2)Man(a1-6)]Man(b1-4)GlcNAc(b1-4)[Fuc(a1-6)]GlcNAc
Procedure, shortened: as §1

[14] = target: Neu5Ac(a2-6)Gal(b1-4)GlcNAc(b1-2)Man(a1-6)Man(b1-4)GlcNAc(b1-4)GlcNAc
Procedure, shortened: as §1

[15] = target: Neu5Ac(a2-6)Gal(b1-4)GlcNAc(b1-2)Man(a1-6)[Gal(b1-4)GlcNAc(b1-2)Man(a1-3)]Man(b1-4)GlcNAc(b1-4)GlcNAc
Procedure, shortened: as §1

[16] = target: Neu5Ac(a2-6)Gal(b1-4)GlcNAc(b1-2)Man(a1-6)[GlcNAc(b1-2)Man(a1-3)]Man(b1-4)GlcNAc(b1-4)GlcNAc
Procedure, shortened: as §1

[17] = target: Neu5Ac(a2-6)Gal(b1-4)GlcNAc(b1-2)Man(a1-6)[Man(a1-3)]Man(b1-4)GlcNAc(b1-4)GlcNAc
Procedure, shortened: as §1

[18] = target: Neu5Ac(a2-6)Gal(b1-4)GlcNAc(b1-2)[Neu5Ac(a2-6)Gal(b1-4)GlcNAc(b1-4)]Man(a1-3)[GlcNAc(b1-4)][Neu5Ac(a2-6)Gal(b1-4)GlcNAc(b1-2)[Neu5Ac(a2-6)Gal(b1-4)GlcNAc(b1-6)]Man(a1-6)]Man(b1-4)GlcNAc(b1-4)GlcNAc
Procedure, shortened: as §1

[19] = target: Neu5Ac(a2-6)Gal(b1-4)GlcNAc(b1-2)[Neu5Ac(a2-6)Gal(b1-4)GlcNAc(b1-4)]Man(a1-3)[GlcNAc(b1-4)][Neu5Ac(a2-6)Gal(b1-4)GlcNAc(b1-4)Man(a1-6)]Man(b1-4)GlcNAc(b1-4)GlcNAc
Procedure, shortened: as §1

[20] = target: Neu5Ac(a2-6)Gal(b1-4)GlcNAc(b1-2)[Neu5Ac(a2-6)Gal(b1-4)GlcNAc(b1-6)]Man(a1-6)[Neu5Ac(a2-6)Gal(b1-4)GlcNAc(b1-2)Man(a1-3)][GlcNAc(b1-4)]Man(b1-4)GlcNAc(b1-4)GlcNAc
Procedure, shortened: as §1

[21] = target: Neu5Ac(a2-6)Gal(b1-4)GlcNAc(b1-3)Gal(b1-3)GlcNAc
Procedure, shortened: as §1

[22] = target: Neu5Ac(a2-6)Gal(b1-4)GlcNAc(b1-3)Gal(b1-4)GlcNAc
Procedure, shortened: as §1

[23] = target: Neu5Ac(a2-6)Gal(b1-4)GlcNAc(b1-3)Gal(b1-4)GlcNAc(b1-2)Man(a1-3)[Neu5Ac(a2-6)Gal(b1-4)GlcNAc(b1-3)Gal(b1-4)GlcNAc(b1-2)Man(a1-6)]GalNAc
Procedure, shortened: as §1

[24] = target: Neu5Ac(a2-6)Gal(b1-4)GlcNAc(b1-3)Gal(b1-4)GlcNAc(b1-3)Gal(b1-4)GlcNAc
Procedure, shortened: as §1

[25] = target: Neu5Ac(a2-6)Gal(b1-4)GlcNAc(b1-3)Gal(b1-4)GlcNAc(b1-3)Gal(b1-4)GlcNAc(b1-2)Man(a1-3)[Neu5Ac(a2-6)Gal(b1-4)GlcNAc(b1-3)Gal(b1-4)GlcNAc(b1-3)Gal(b1-4)GlcNAc(b1-2)Man(a1-6)]GalNAc
Procedure, shortened: as §1

[26] = target: Neu5Ac(a2-6)Gal(b1-4)GlcNAc(b1-3)Gal(b1-4)GlcNAc(b1-3)GalNAc
Procedure, shortened: as §1

[27] = target: Neu5Ac(a2-6)Gal(b1-4)GlcNAc(b1-3)Gal(b1-4)GlcNAc(b1-3)[Neu5Ac(a2-6)Gal(b1-4)GlcNAc(b1-3)Gal(b1-4)GlcNAc(b1-6)]GalNAc
Procedure, shortened: as §1

[28] = target: Neu5Ac(a2-6)Gal(b1-4)GlcNAc(b1-3)Gal(b1-4)GlcNAc(b1-6)[Gal(b1-3)]GalNAc
Procedure, shortened: as §1

[29] = target: Neu5Ac(a2-6)Gal(b1-4)GlcNAc(b1-3)Gal(b1-4)[Fuc(a1-3)]GlcNAc(b1-3)Gal(b1-4)[Fuc(a1-3)]GlcNAc
Procedure, shortened: as §1

[30] = target: Neu5Ac(a2-6)Gal(b1-4)GlcNAc(b1-3)GalNAc
Procedure, shortened: as §1

[31] = target: Neu5Ac(a2-6)Gal(b1-4)GlcNAc(b1-3)[Neu5Ac(a2-6)Gal(b1-4)GlcNAc(b1-6)]GalNAc
Procedure, shortened: as §1

[32] = target: Neu5Ac(a2-6)Gal(b1-4)GlcNAc(b1-6)GalNAc
Procedure, shortened: as §1

[33] = target: Neu5Ac(a2-6)Gal(b1-4)GlcNAc(b1-6)[Gal(b1-3)GlcNAc(b1-3)]Gal(b1-4)Glc
Procedure, shortened: as §1

[34] = target: Neu5Ac(a2-6)Gal(b1-4)GlcNAc(b1-6)[Gal(b1-3)]GalNAc
Procedure, shortened: as §1

[35] = target: Neu5Ac(a2-6)Gal(b1-4)GlcNAc6S
Procedure, shortened: as §1

Neu5Ac(a2-6)GalNAc = target: Neu5Ac(a2-6)GalNAc
Procedure, shortened: as §1

[36] = target: Neu5Ac(a2-6)GalNAc(b1-4)GlcNAc
Procedure, shortened: as §1

[37] = target: Neu5Ac(a2-6)GalNAc(b1-4)GlcNAc6S
Procedure, shortened: as §1

[38] = target: Neu5Ac(a2-6)GlcNAc(b1-4)GlcNAc
Procedure, shortened: as §1

[39] = target: Neu5Ac(a2-6)GlcNAc(b1-4)GlcNAc(b1-4)GlcNAc
Procedure, shortened: as §1

Neu5Ac(a2-8)Neu5Ac = target: Neu5Ac(a2-8)Neu5Ac
Procedure, shortened: as §1

[40] = target: Neu5Ac(a2-8)Neu5Ac(a2-3)Gal(b1-3)GalNAc(b1-4)[Neu5Ac(a2-3)]Gal(b1-4)Glc
Procedure, shortened: as §1

[41] = target: Neu5Ac(a2-8)Neu5Ac(a2-3)Gal(b1-3)GalNAc(b1-4)[Neu5Ac(a2-8)Neu5Ac(a2-3)]Gal(b1-4)Glc
Procedure, shortened: as §1

B1: GST Gap3 (Streptococcus parasanguinis) (protein)
chain: MTKQLISEIYWNEIRKGENYLYGSQIKFQEDLVNFYNPQLASGKPIVTFKSRTNYQGDRHSPDLPILIQGNRYLLEYQIDAVPANSFFLQLDFFNRQAEQIESIVLRNSGESFIFPKDTFTYTLTLMSAGCQSVTYQKFMIYDINDEEKKNHIVENRYLRELLPKDLDLVKNLIEYI
glycan array binding signal (z-score) [1]: -0.623 | glycan array binding signal (z-score) (Neu5Ac(a2-6)Gal): -0.241 | glycan array binding signal (z-score) [2]: -0.488 | glycan array binding signal (z-score) (Neu5Ac(a2-6)Gal(b1-4)Glc): -0.263 | glycan array binding signal (z-score) [3]: -0.297 | glycan array binding signal (z-score) [4]: -0.291 | glycan array binding signal (z-score) [5]: 0.056 | glycan array binding signal (z-score) [6]: 0.937 | glycan array binding signal (z-score) [7]: -0.069 | glycan array binding signal (z-score) [8]: -0.09 | glycan array binding signal (z-score) [9]: -0.278 | glycan array binding signal (z-score) [10]: 0.288 | glycan array binding signal (z-score) [11]: -0.415 | glycan array binding signal (z-score) [12]: -0.174 | glycan array binding signal (z-score) [13]: -0.244 | glycan array binding signal (z-score) [14]: -0.073 | glycan array binding signal (z-score) [15]: -0.283 | glycan array binding signal (z-score) [16]: -0.269 | glycan array binding signal (z-score) [17]: -0.082 | glycan array binding signal (z-score) [18]: -0.294 | glycan array binding signal (z-score) [19]: 0.042 | glycan array binding signal (z-score) [20]: -0.109 | glycan array binding signal (z-score) [21]: -0.335 | glycan array binding signal (z-score) [22]: -0.399 | glycan array binding signal (z-score) [23]: -0.461 | glycan array binding signal (z-score) [24]: -0.192 | glycan array binding signal (z-score) [25]: -0.169 | glycan array binding signal (z-score) [26]: -0.222 | glycan array binding signal (z-score) [27]: -0.09 | glycan array binding signal (z-score) [28]: 1.19 | glycan array binding signal (z-score) [29]: 0.104 | glycan array binding signal (z-score) [30]: 0.718 | glycan array binding signal (z-score) [31]: 1.19 | glycan array binding signal (z-score) [32]: 0.75 | glycan array binding signal (z-score) [33]: -0.147 | glycan array binding signal (z-score) [34]: -0.394 | glycan array binding signal (z-score) [35]: -0.035 | glycan array binding signal (z-score) (Neu5Ac(a2-6)GalNAc): -0.302 | glycan array binding signal (z-score) [36]: -0.336 | glycan array binding signal (z-score) [37]: -0.379 | glycan array binding signal (z-score) [38]: -0.465 | glycan array binding signal (z-score) [39]: 1.94 | glycan array binding signal (z-score) (Neu5Ac(a2-8)Neu5Ac): -0.152 | glycan array binding signal (z-score) [40]: 1.1 | glycan array binding signal (z-score) [41]: 0.064
